Test results: PMC8394796
No constants are given. Whether binding was seen depends on the method and setting. In cells and extracts the contact can be indirect. Some entries that bind do so weakly or less than the wild type.

The chains behind the UniProt entries cited, without tags or fusion partners. Residues count along the entry.
UniProt P40763: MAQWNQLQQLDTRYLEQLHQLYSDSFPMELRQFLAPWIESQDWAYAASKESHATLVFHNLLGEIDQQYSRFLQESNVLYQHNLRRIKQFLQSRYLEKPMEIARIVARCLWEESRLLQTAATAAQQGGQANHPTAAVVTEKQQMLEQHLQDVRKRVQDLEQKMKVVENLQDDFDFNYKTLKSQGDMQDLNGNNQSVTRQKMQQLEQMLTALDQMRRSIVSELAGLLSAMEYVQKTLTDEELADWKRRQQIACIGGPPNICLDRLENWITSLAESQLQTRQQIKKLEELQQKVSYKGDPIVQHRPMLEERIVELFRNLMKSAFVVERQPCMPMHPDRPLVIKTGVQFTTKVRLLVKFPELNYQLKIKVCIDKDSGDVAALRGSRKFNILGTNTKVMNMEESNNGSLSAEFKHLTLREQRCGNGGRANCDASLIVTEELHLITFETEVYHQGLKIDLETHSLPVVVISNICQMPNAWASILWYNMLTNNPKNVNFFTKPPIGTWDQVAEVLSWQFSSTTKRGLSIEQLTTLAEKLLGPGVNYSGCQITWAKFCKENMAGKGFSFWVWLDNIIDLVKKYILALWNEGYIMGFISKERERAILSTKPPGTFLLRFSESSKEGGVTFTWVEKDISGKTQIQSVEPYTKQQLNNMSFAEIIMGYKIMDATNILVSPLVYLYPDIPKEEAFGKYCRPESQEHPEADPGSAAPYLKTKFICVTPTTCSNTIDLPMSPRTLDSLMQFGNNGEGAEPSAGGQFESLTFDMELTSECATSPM
UniProt Q9NZQ7, residues 19-290: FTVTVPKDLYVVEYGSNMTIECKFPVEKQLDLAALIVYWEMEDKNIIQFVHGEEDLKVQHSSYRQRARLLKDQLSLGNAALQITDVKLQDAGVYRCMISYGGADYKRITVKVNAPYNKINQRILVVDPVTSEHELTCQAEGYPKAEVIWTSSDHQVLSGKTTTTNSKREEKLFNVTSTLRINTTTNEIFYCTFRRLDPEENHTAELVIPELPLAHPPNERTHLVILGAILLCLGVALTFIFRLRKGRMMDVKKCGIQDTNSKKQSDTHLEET

Molecular target: signal transducer and activator of transcription 3 (STAT3) (human (endogenous in DU145)) (UniProt P40763)
Assay: co-IP; DU145 cell lysates (cells untreated or treated with compound K for 24 h) immunoprecipitated with anti-STAT3 antibody or normal IgG, Protein A/G sepharose beads; immunoblot for PD-L1 and STAT3

programmed death-ligand 1 (PD-L1) (from UniProt Q9NZQ7 19-290)
binding: binds
